# PubChem BioAssay AID1487 (National Center for Advancing Translational Sciences (NCATS), 2009)
# The whole screen tested about 200,000 compounds, of which about 25 (0.01%) were called active. Inconclusive means that the source gave no clear call. Such entries were picked first, then a sample of the others. The call rests on the fitted dose curve; in most records, active means well fitted inhibition curve with a large enough effect in the signal ratio, with a control signal flat (not every such curve was filed as active); inconclusive means small, poorly fitted or top-dose-only effect, or effect the other way, or a change in a side signal; inactive means flat fitted curve, though single readings scatter; the % refers to the signal ratio. Potencies beside an inconclusive call are fits to weak or partial responses and may not hold up.
# Assay: qHTS Assay for Modulators of Lamin A Splicing
# Details: HeLa LMNA splicing GFP/RFP minigene ratio, 48 h; ratio change, negative = inhibition: at 46.1 µM (top of the series) unless noted
# In short: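 Read-out is the ratio of GFP to DsRed2 object intensity, acquired by 488 nm laser-scanning cytometry on HeLa lamin A-EGFP minigene reporter cells. Compound incubation 48 hrs at 37 °C in Opti-MEM with 2% FBS; DMSO 0.5% final.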
# On the % scale 0 is the no-effect control and ±100 the full control effect; potency means the concentration at half of the fitted maximal effect.
Compound,Potency,"ratio change, negative = inhibition"
CC(C)CC(=O)NC(=S)Nc1ccc(S(=O)(=O)NC(C)(C)C)cc1,"inconclusive: 35.5 µM [fluorescent, single point]",
Clc1ccc(-c2nn3c(-c4ccccc4)nnc3s2)cc1,,inactive: 8.93%
CCn1c(CN2CCCCC2)nc2cc(NC(=O)c3ccc([N+](=O)[O-])cc3)ccc21,,inconclusive: -5.57% [at 46 µM]
COC(=O)c1c(NC(=O)/C=C/C(=O)O)sc(C)c1-c1ccc(C)c(C)c1,"inconclusive: 35.5 µM [falling, single point]",
Cc1ccccc1NC(=S)N/N=C1\CC(C)(C)Oc2ccc(O)cc21,,inconclusive: 76.3% [at 46 µM]
Cc1cccc(C(=O)Nc2nnc(SCC(=O)Nc3ccc4c(c3)oc3ccccc34)s2)c1,,inconclusive: 25.4%
Cc1ccc2ccc3cc(C(=O)N4CCN(c5ccccc5)CC4)nc3c2[nH]1,,inconclusive: -24.5% [at 46 µM]
CCCS(=O)(=O)N1CCCC(C(=O)NC2CCCC(C)C2C)C1 (stereo unspecified),,inactive: -10%
CCOC(=O)C1(Cc2ccccc2C(F)(F)F)CCN(C2CCN(C(C)C)CC2)CC1,,inactive: 14.6% [at 46 µM]
COc1ccc(NS(=O)(=O)c2cc(NC(=O)C3CC3)ccc2N2CCCCC2)cc1,,inconclusive: -26.4% [at 46 µM]
COc1cccc(N2CCN(S(=O)(=O)c3ccc4c(c3)CCCN4C(C)=O)CC2)c1,"inconclusive: 1.12 µM [inhibitor, partial curve, poor fit]",
CC(C)N1CCC(NC(=O)Nc2ccccc2)CC1,,inconclusive: 28.1% [at 46 µM]
Cc1ccc(C(=O)OCC(=O)NCc2cccs2)cc1S(=O)(=O)N1CCOCC1,,inconclusive: 31.9% [at 9.22 µM]
CCOc1cccc(C=Nc2cc(C)cc(C)c2O)c1O,,inactive: -9.79%
CCCOc1ccccc1NC(=O)/C=C/C(N)=O,"inconclusive: 35.5 µM [cytotoxic, single point]",
CCCC(=O)OCCNc1cc(Sc2nc3ccccc3[nH]2)c2nonc2c1[N+](=O)[O-],"inconclusive: 35.5 µM [falling, single point]",
CCOc1cc(CNc2ccc(O)cc2)cc(Br)c1OCc1ccccc1F,,inactive: 7.07%
O=C(Cn1cnc2c(cnn2-c2ccc(F)cc2)c1=O)N1CCCc2ccccc21,"inconclusive: 11.2 µM [falling, single point]",
Cc1ccc(N2C(=O)CC(Sc3ccccc3C(=O)O)C2=O)cc1C (stereo unspecified),,inconclusive: -7.33% [at 46 µM]
Cc1cccc(CC(=O)NCCc2csc(-c3ccc(C(F)(F)F)cc3)n2)c1,,inactive: 13.1% [at 46 µM]
C/C(=N\Nc1ccc([N+](=O)[O-])cc1[N+](=O)[O-])C(C)(C)C(C(=O)O)C(=O)O,,inactive: -7.42%

Compound,Potency,"ratio change, negative = inhibition"
O=[N+]([O-])c1cc(-c2n(-c3ccccn3)c3ccccc3[n+]2-c2ccccn2)ccc1Cl,,inactive: -22.7% [at 46 µM]
O=C(c1ccco1)N1CCN(C(c2ccccc2Cl)c2nnnn2Cc2cccs2)CC1 (stereo unspecified),,inconclusive: -2.58%
COc1ccccc1-c1cc(NC(=O)COc2ccc(C)c(C)c2)n(-c2ccccc2)n1,,inconclusive: 10.8% [at 46 µM]
Cc1[nH]c2ccccc2c1Cc1n[nH]c(=S)o1,,inactive: -0.311%
O=c1c(-c2cccc(Cl)c2)nc2cncnc2n1Cc1ccccc1,,inconclusive: 9.52%
CCOc1ccc(NC(=O)Cn2c(=O)cc(C)c3c(C)nn(-c4cccc(Cl)c4C)c32)cc1,,inactive: -16.7% [at 46 µM]
Cc1ccccc1-c1nnc(SCc2ccccc2F)o1,,inconclusive: 6.81%
CCCCCCCCCCCC(=O)[O][Sn]([CH2]CCC)([CH2]CCC)[O]C(=O)CCCCCCCCCCC,,inconclusive: 4.3%
O=C(c1cccnc1)N1CCN(c2ccc(Cl)cc2)CC1,,inconclusive: -8.4%
CN(C)c1ccc(C(=O)NC2CCCc3ccccc32)cc1 (stereo unspecified),,inconclusive: -9.36% [at 46 µM]
CCCC(O)(CCN1CCCCC1)c1ccc(OCC)cc1 (stereo unspecified),,inactive: -11.3%
Cc1csc(SCC(=O)NCCc2ccc(Cl)cc2)n1,,inconclusive: 13.4%
N#Cc1c(NCc2ccccc2)ccnc1NCc1cccnc1,"inconclusive: 6.31 µM [falling, full curve]",
COC(=O)C1=C(C(=O)OC)[C@@H]2Nc3ccccc3[C@@]23C[C@@H](C(=O)OC)N(S(=O)(=O)c2ccc(C#N)cc2)C3=N1,,inactive: 4.48% [at 9.22 µM]
O=S(=O)(NCC(c1ccco1)N1CCOCC1)c1ccc(F)cc1 (stereo unspecified),,inconclusive: -2.46% [at 46 µM]
Cc1ccc2c(c1)C(c1ccc(O)cc1)(c1ccc(O)cc1)C(=O)N2C,,inconclusive: -30.7% [at 46 µM]
Cc1ccc(NC(=O)CSc2nc(N)c3c4c(sc3n2)CSC(C)(C)C4)cc1,"inconclusive: 35.5 µM [falling, single point]",
Cc1nc2nc3c(c(=O)n2[nH]1)CCC3,,inactive: -1.16%
O=C(Nc1cccc(S(=O)(=O)C(F)F)c1)c1ccc(S(=O)(=O)N2CCCCC2)cc1,"inconclusive: 15.8 µM [inhibitor, single point]",
CN(CP(=O)(O)CN(C)S(C)(=O)=O)S(C)(=O)=O,,inconclusive: 41.5%

# Complete entries from above.
# O=c1c(-c2cccc(Cl)c2)nc2cncnc2n1Cc1ccccc1 in the list: ratio change, negative = inhibition: inconclusive: 9.52%
# O=C(c1cccnc1)N1CCN(c2ccc(Cl)cc2)CC1 in the list: ratio change, negative = inhibition: inconclusive: -8.4%
# Cc1ccccc1-c1nnc(SCc2ccccc2F)o1 in the list: ratio change, negative = inhibition: inconclusive: 6.81%
